Source: paper PMC13132549

By UniProt entry, the sequences of proteins in these tests, tags left out. Where a name states a change or a piece, a line headed by the entry shows the natural chain unless it says otherwise. Residues count along the entry.
UniProt P48443: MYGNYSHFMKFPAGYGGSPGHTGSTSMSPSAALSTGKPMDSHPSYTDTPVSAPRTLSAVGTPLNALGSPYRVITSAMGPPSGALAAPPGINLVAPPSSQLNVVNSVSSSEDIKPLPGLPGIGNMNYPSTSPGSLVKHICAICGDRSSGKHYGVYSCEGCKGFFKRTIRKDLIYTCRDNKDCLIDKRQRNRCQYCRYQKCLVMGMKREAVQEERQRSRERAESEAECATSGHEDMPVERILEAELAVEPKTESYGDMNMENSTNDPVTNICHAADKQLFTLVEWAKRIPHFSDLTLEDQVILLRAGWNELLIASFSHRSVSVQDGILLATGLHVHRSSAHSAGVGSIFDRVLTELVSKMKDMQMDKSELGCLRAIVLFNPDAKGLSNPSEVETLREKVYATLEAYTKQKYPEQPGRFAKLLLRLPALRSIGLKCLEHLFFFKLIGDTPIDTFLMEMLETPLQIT
UniProt P22736, residues 356-598: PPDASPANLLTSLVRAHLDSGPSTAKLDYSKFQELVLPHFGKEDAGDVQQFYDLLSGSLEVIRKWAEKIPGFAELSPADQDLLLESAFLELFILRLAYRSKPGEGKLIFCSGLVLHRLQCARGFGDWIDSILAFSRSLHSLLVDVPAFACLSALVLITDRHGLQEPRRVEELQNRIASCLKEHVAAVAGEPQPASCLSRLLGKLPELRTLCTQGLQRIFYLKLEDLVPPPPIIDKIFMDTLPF

Key:
[1] = target: RXRγ (NR2B3) ligand-binding domain (LBD) (human) (UniProt P48443); test: SEC; Nur77 LBD and RXRγ LBD (each 700 µM) incubated 16 hr at 4 °C, heterodimer isolated on Superdex 75 and analysed on Superdex 75 Increase 10/300 GL with or without two molar equivalents of RXR ligand; 20 mM potassium phosphate pH 7.4, 50 mM KCl, 0.5 mM EDTA; both purified
[2] = target: RXRγ (NR2B3) ligand-binding domain (LBD) (human) (UniProt P48443); test: ITC; Nur77 LBD titrated into RXRγ LBD without ligand at 15 °C; both purified
[3] = target: RXRγ (NR2B3) ligand-binding domain (LBD) (human) (UniProt P48443); test: AlphaScreen or HTRF; TR-FRET: 4 nM 6xHis-RXRγ LBD, 1 nM Tb-anti-His antibody, 400 nM FITC-PGC1α peptide, DMSO or RXR ligand; 20 mM potassium phosphate pH 7.4, 50 mM KCl, 5 mM TCEP, 0.005% Tween 20; 4 °C; both purified

Molecule | binding [1] | binding [2] | binding [3]
Nur77 (NR4A1) ligand-binding domain (LBD) (from UniProt P22736 356-598) (domain or fragment) | binds | binds | 
EAEEPSLLKKLLLAPANTQ (N-terminal FITC label; amidated C-terminus) [FITC-labeled LXXLL-containing peptide derived from human PGC-1α (137-155)] |  |  | binds

Results are given in words; binding and its absence hold for the method and conditions named. Binding calls can cover weak binding; strength is not graded here.
